For experiment [1], the target named is T1, FLAG-tagged GEF-H1 (Human pCMV6-Entry-GEF-H1), wild type (human) (UniProt Q92974).
T1 sequence: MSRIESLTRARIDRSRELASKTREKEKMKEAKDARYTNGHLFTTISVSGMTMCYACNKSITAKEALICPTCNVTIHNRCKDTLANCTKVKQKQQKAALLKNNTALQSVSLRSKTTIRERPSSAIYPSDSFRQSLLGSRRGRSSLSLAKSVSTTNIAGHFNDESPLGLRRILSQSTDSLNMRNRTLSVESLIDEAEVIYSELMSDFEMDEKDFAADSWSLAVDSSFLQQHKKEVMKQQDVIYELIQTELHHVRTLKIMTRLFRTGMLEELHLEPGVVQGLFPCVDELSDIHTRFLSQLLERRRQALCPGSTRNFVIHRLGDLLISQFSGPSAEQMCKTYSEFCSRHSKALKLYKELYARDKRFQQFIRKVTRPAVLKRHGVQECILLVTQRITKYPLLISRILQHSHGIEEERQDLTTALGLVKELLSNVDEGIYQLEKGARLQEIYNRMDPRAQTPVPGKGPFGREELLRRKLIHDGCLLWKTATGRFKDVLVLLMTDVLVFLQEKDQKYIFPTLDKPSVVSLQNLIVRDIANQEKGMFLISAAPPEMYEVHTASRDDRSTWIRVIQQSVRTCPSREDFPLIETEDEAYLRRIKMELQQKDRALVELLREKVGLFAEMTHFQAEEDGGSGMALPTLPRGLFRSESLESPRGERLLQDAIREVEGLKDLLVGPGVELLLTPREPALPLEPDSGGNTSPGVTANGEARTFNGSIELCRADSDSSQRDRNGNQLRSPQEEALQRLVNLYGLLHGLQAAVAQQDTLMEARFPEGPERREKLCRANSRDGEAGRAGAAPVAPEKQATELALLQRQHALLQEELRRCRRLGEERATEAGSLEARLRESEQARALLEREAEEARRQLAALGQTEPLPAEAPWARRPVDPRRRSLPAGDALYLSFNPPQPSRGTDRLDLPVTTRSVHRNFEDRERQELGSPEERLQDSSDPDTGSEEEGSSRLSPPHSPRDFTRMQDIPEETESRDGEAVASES
Description: co-IP; HEK293T cells transfected with the indicated plasmids (GEF-H1 WT or variants with IRF5, IKKε, IKKβ; with or without RIPK2 or NOD2); precipitated with anti-GEF-H1, protein G agarose; lysis buffer 1% NP-40, 20 mM Tris-HCl pH 7.4, 150 mM NaCl; partners detected by western blot. In general terms: Immunoblotting shows a protein as a band on a membrane.

Sequences of proteins named here, by UniProt entry; tags and fusion partners are left off.
UniProt P56477: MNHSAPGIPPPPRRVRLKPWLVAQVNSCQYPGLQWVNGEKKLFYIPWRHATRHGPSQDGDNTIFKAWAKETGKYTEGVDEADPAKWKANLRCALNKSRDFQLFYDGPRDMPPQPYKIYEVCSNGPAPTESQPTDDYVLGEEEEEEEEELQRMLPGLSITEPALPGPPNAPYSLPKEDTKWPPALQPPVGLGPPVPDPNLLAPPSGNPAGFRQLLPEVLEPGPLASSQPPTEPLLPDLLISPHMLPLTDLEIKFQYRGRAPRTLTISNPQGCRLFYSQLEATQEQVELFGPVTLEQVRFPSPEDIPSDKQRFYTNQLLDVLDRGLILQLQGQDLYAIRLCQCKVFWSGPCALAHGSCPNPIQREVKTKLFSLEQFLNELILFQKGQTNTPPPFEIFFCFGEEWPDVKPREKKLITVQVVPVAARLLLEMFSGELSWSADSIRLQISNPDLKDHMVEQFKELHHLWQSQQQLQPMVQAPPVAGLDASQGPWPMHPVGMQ
UniProt O43353: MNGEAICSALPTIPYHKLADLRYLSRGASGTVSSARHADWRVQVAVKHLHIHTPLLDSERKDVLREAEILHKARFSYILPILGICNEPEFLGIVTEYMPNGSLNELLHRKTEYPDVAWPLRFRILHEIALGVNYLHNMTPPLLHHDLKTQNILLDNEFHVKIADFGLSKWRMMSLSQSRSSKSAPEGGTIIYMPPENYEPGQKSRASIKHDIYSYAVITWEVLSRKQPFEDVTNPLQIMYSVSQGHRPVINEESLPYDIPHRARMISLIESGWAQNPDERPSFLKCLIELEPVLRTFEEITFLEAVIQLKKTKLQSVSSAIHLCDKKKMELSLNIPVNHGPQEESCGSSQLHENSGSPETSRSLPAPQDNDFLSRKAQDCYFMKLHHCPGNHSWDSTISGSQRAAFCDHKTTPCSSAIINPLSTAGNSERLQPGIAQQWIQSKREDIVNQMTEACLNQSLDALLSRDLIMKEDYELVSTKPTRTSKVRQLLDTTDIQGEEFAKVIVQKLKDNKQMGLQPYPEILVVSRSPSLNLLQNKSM
UniProt Q13568: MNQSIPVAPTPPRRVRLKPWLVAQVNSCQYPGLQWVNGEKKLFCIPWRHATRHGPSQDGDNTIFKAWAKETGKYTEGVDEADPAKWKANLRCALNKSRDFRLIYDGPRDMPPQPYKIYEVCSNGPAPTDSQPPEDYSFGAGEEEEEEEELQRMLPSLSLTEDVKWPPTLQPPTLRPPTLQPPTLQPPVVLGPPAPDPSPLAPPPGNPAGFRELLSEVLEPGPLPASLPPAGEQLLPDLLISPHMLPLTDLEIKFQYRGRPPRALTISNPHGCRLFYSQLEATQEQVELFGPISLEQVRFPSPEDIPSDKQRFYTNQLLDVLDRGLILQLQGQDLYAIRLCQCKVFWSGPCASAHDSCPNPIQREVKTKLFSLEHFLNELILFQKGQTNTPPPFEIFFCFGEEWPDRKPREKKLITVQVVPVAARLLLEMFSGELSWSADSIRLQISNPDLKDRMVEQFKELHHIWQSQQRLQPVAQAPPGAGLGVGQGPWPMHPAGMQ

In experiment [2] the target is T2, GEF-H1 (S886A) variant (human) (UniProt Q92974).
T2 sequence: T1 sequence with S886A
Described as above.

The target in experiment [3] is T3, GEF-H1 double-mutant S324A/S886A (human) (UniProt Q92974).
T3 sequence: T1 sequence with S324A, S886A
The experiment is described as above.

Experiment [4] has as its target interferon regulatory factor 5 (IRF5), mouse, endogenous (mouse (endogenous in BMDMs)) (UniProt P56477). Description: co-IP; endogenous proteins in lysates of mouse BMDMs (WT, Arhgef2-/- as control), with or without N-glycolyl-MDP; precipitated with anti-IRF5 or control IgG, protein G agarose; lysis buffer 1% NP-40, 20 mM Tris-HCl pH 7.4, 150 mM NaCl; blot for GEF-H1.

Residue numbers refer to the chain shown, from its start. These are yes or no findings as the source states them, for the method shown. Binding seen in cells or lysates may run through a third protein. Some entries that bind do so weakly or less than the wild type. For some assays here: Where a sequence is shown, tags or fusion partners need not be part of it.

Consider “human RIPK2 (pcDNA3-huRipK2-HA) (from UniProt O43353 1-540)”, for which, in experiment [1], the binding entry is reported as “binds”.
In the case of “human IRF5 (pcDNA3-huIRF5-GFP) (from UniProt Q13568 1-498)”, the binding entry in experiment [2], in experiment [1] and in experiment [3] was “binds” each time.

B1: guanine nucleotide exchange factor-H1 (GEF-H1), mouse, endogenous (protein, UniProt Q60875 1-985)
chain: MSRIESLTRARIDRSKEQATKTREKEKMKEAKDARYTNGHLFTTISVSGMTMCYACNKSITAKEALICPTCNVTIHNRCKDTLANCTKVKQKQQKAALLRNNTALQSVSLRSKTTTRERPTSAIYPSDSFRQSLLGSRRGLSSLSLAKSVSTTNIAGHFNDESPLGLRQILSQSTDSLNMRNRTLSVESLIDEGVEVFYNELMSDFEMDEKDFEADSWSLAVDSSFLQQHKKEVMKKQDVIYELIQTELHHVRTLKIMTRLFRTGMLEELQMEPEVVQGLFPCVDELSDIHTRFLNQLLERRRQALCPGSTRNFVIHRLGDLLISQFSGSNAEQMRKTYSEFCSRHTKALKLYKELYARDKRFQQFIRKMTRSAVLKRHGVQECILLVTQRITKYPVLINRILQNSHGVEEEYQDLASALGLVKELLSNVDQDVHELEKEARLQEIYNRMDPRAQTPVPGKGPFGRDELLRRKLIHEGCLLWKTATGRFKDVLLLLMTDVLVFLQEKDQKYIFTSLDKPSVVSLQNLIVRDIANQAKGMFLISSGPPEMYEVHAASRDDRTTWIRVIQQSVRLCPSREDFPLIETEDKAYLRRIKTKLQQKNQALVELLQKNVELFAEMVHFQALKAGFVGMPPPALPRGLFRLESFESLRGERLLKDALREVEGLKDLLLGPCVDLPMTSREPALPLDSDSGSCPGVTANGEARTFNGSIELCRADSDSSQKDRNGNQLRSPQEEVLQPLINLYGLLHGLQAVVVQQERLMEALFPEGPERWEKLSRANSRDGEAGRAAVASVTPEKQATELALLQRQHTLLQEELRRCQRLGEERATEAGSLEARLRESEQARALLEREAEEIRRQLAALGQNEPLPAEAPWARRPLDPRRRSLPAGDALYLSFNPPQPSRGHDRLDLPVTVRSLHRPFDDREAQELGSPEDRLQDSSDPDTGSEEEVSSRLSPPHSPRDFTRMQDIPEETESRDGEPTASES
B1: the binding result in experiment [4] was “binds”.
